Test: blind taste study, tasting-panel of three judges
Conditions: 0.11 mM concentrations, approximately 5000 ppm F^-, unanimous

Compound	astringency, comparison and ranking of zinc salts
O=S(=O)([O-])[O-].[Zn+2] [ZnSO4]	ranked in descending order of astringency
O=S(=O)([O-])c1ccc(O)cc1.O=S(=O)([O-])c1ccc(O)cc1.[Zn+2] [zinc phenolsulfonate]	ranked in descending order of astringency

From patent US4430324A (priority 1982, dated 1984)
